Results from one PubChem assay

Data taken from PubChem BioAssay AID1159506, deposited by NCATS (2015).

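Genome-wide siRNA knockdown in TC32 Ewing sarcoma cells, comparing luciferase light from an NR0B1-promoter reporter with a CMV-promoter reporter 48 hours after transfection. Each siRNA was applied at 20 nM. A z-score of the log NR0B1-over-CMV signal, less the median of siRNAs with the same seed; more negative means a stronger specific loss of the NR0B1 reporter.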

This is part of the screen; most of the strongest results are not listed here. Sequences are the guide (antisense) strand, without overhang.

siRNA,target gene,seed-corrected z-score
UCUUGCUUAAGACUCUGGG,CCDC163P,0.6686
UCCAGCACAUCGGUUAUGG,METTL1,-0.229
UAGGAGAUCAAUAGAGAGA,SLC22A11,0.2538
UUAGCUAUAAGUCCCGUUC,LINC01551,1.681
UAAAUUACUUGAGCUCUGU,RPS25P6,-0.468
UAAAGGUCCUGGUUUUCUC,USB1,1.149
UUUUCACUGACUUUAAGCC,POTED,-0.3583
AAAAGCACAGUUGACAUCC,MED24,0.09406
UUUUGUUCCAGUUACCCAC,MFGE8,1.419
UGUUCGGUAAAGGUCCUUG,PTPRJ,-1.157
UGUGCUGUUAUCGAAAGUC,UNK,0.1424
AAUCUAAUGAGUAGAGUCA,MAS1L,-0.633
UGCAGCUGAAUGAUCGUGG,PROCR,0.496
UCUAUAUCGGUGAAGCAGC,FBXO31,0.4569
UUCAGCACCACACCAAUAG,FCRL4,1.4
UCUACGUCCAGGUAGGCUU,RTN3,-0.2214
UCACUAUUCACACUCAUUG,LOC389641,0.2911
UUAGUCCCAAGUUUAGAGC,PFKM,0.872
UCCCUCAAAGGUGUUUCCG,JPH2,-0.3981
UUCAUCUUGAACUUUUUGU,ZBTB22,1.7
UUUACUCUUGGAUAUAUUC,PRSS44,0.4757
UCUCAAUCAAUGAACAGCC,GPR61,-1.408
UAAUGAGUUAGCUGAGGCG,FAM179A,-0.1675
UACUGUCCUUGUACUUAGC,STK31,-1.966
UUCCUUCUGACCAUUUCUC,CABYR,0.007486
UGAAUGACUCUUUAGAUUG,E2F5,0.4187
UUUUGUCAUUGGGAUAUCC,ANKRD26P1,-0.0952
UUGAUUCACAGGCUGGAGG,MARCKSL1,1.68
UGUCGAUGAAGUCAAUCUG,LRCH4,-1.276
CCUCUGUAUAUCAAACACC,RABL2A,-0.1174
UAUUUGACCCUCACUGAGU,C19orf73,-0.4411
UUGUACUUGAAGAUACUCC,GNG5,0.1295
UAUCUUGUCUUUCUUCAGG,POLR3G,-0.1527
AGUUGGACCAGGAUUGAAG,NAT6,0.5127
UAGGUUAAGAGGUGAGCUG,CCDC88C,-0.3808
UUCUGUACCUGUACGGUCA,CIC,0.4082
UAAAUUCCCAUAGAGCUGA,WBP2NL,-0.899
UAAAUUACAGGAAAGCUAU,RGCC,0.8508
UCUGUCUCUAGGUAGAACA,NCKAP5L,0.9851
UUUUGCUAGGUUGAAAUCC,ZNF454,-0.1257
UUCUAGAUACUCUUUUCGC,CLOCK,0.07962
UCCCGUUCUGGUUUAGAGC,ARAP3,-0.04496
UUCAUCACGAUGUAGAUCU,CDK11B,0.2907
AAAGGUGUUUGCUUGCACU,CDC42EP1,-0.365
UCUUCAUCGAUUUCAGCUG,NACA,-0.8035
UAGCUCAUUCUCUACAUCC,RUFY2,0.5352
UCUCCAUCAACCAUGACGG,SEMA4D,-0.4659
UCCUGAUAUCCUGAUAUGG,PPIL4,0.01216
UCGUCGUCCAUUUCUAAGC,CCDC6,-0.4099
UUAUUCAGCAGGUUUGCUC,FAM110D,-0.4505
UUCACAUCUGGGCUCAUGC,LIMK1,-0.5647
UUAUUAGCCUUUCUGAUGG,LRMP,0.09245
UCGUCCAUGAAUUCCACGC,RPS28P4,1.962
UAGGUAUCGGUCAUGGUCU,CCR7,-0.2231

The first 7 entries again:

| siRNA | target gene | seed-corrected z-score |
|---|---|---|
| `UCUUGCUUAAGACUCUGGG` | CCDC163P | 0.6686 |
| `UCCAGCACAUCGGUUAUGG` | METTL1 | -0.229 |
| `UAGGAGAUCAAUAGAGAGA` | SLC22A11 | 0.2538 |
| `UUAGCUAUAAGUCCCGUUC` | LINC01551 | 1.681 |
| `UAAAUUACUUGAGCUCUGU` | RPS25P6 | -0.468 |
| `UAAAGGUCCUGGUUUUCUC` | USB1 | 1.149 |
| `UUUUCACUGACUUUAAGCC` | POTED | -0.3583 |